PMC4277623 (Iranian Journal of Pharmaceutical Research : IJPR, 2015)

Assay: general procedure: Fmoc solid-phase peptide synthesis; Rink Amide MBHA resin, loading 0.69 mmol/g; DIC/HOBT/DIPEA; HATU/DIPEA for Boc-HYNIC
Details: whole synthesis

With HYNIC-Tyr^8-Met(O)^11-SP as the substance, how does the isolated yield read?
Its isolated yield is “approximately 53%”.

What about the crude yield (overall) of the same substance?
Its crude yield is “about 76%”.
